This is one part of the list. These are further read-outs of the screen, such as a control signal, another cell line or another target. No call is given for them. Compounds called inactive in the main read-out are mostly missing here. Words in brackets tell the shape of the fitted curve; partial curves, single points and poor fits give uncertain potencies.
Assay: qHTS Assay for Lipid Storage Modulators in Drosophila S3 Cells;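 for cell number change: cells counted by Cell Tracker Red CMTPX staining in the red channel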
Details: BODIPY lipid droplet fluorescence, 18-24 h; for cell number change: measured here: cell count max response, cells fed with added oleic acid
How it was run: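 Drosophila S3 cells got compounds at several concentrations plus oleic acid (400 uM solution). Laser-scanning cytometry with 488 nm excitation read lipid droplets at 500-530 nm and cells at 575-640 nm. Percent activity was relative to 20 uM Triacsin C.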

[1] = measured here: lipid fluorescence (Fed channel) AC50, cells fed with added oleic acid
[2] = measured here: cell number channel AC50, cells fed with added oleic acid

COc1cccc(NC(=S)N/N=C2\CC(C)(C)Oc3ccc(O)cc32)c1
cell number change: 5.86%
AC50 [1]: 2.31 µM [rising, partial curve, poor fit]

COC(c1ccccc1)c1nnc(CCC(=O)NCc2ccc3ncccc3c2)o1 (centres undefined)
cell number change: -9.27%
AC50 [1]: 29.1 µM [falling, single point]

COC(=O)c1ccc(NCCC(=O)O)cc1
cell number change: 1.65%

COc1cc(/C=N/n2c(C)n[nH]c2=S)ccc1OCc1ccc(F)cc1
cell number change: 34.5%
AC50 [2]: 18.4 µM [rising, partial curve, poor fit]
AC50 [1]: 20.6 µM [rising, partial curve]

COc1cc(Cl)ccc1OCc1cc(C(=O)NC(C)Cc2cnccn2)no1 (centres undefined)
cell number change: 15.2%
AC50 [1]: 0.259 µM [rising, full curve]

NC(=O)c1ccccc1Br
cell number change: 0.543%
AC50 [1]: 3.66 µM [falling, single point]

CCN=c1scc(C)n1/N=C/c1cc(Br)c(O)c(OC)c1
cell number change: -3.91%
AC50 [2]: 6.51 µM [falling, single point]
AC50 [1]: 6.51 µM [falling, single point]

Cc1ccc(NC(=S)N2CCN(S(C)(=O)=O)CC2)cc1C
cell number change: 24%

COc1cc(CCC(=O)N2CC(C)OC(C)C2)cc(OC)c1OC (centres undefined)
cell number change: 0.587%
AC50 [1]: 25.9 µM [falling, single point]

Cc1cc2c([nH]c3ccccc32)c2c1OC(C)(C)C=C2
cell number change: -55.5%
AC50 [2]: 16.4 µM [falling, single point]
AC50 [1]: 29.1 µM [falling, single point]

COc1ccccc1NC(=O)c1ccc(N2CC3CC(C2)c2cccc(=O)n2C3)c(NC(=O)c2ccncc2)c1 (centres undefined)
cell number change: 20.2%
AC50 [1]: 0.13 µM [rising, full curve, poor fit]

COc1ccc(/C=N/NC(C)(C)C)c(OC)c1
cell number change: 33.8%
AC50 [2]: 11.6 µM [rising, single point]
AC50 [1]: 3.66 µM [falling, single point]

CCOc1ncccc1C(=O)N1CCN(c2cc(Cl)ccc2C)CC1
cell number change: 17.5%
AC50 [2]: 0.517 µM [rising, full curve, poor fit]
AC50 [1]: 0.651 µM [falling, single point]

COC(=O)c1cc(OC)c(OC)cc1NC(=O)c1ccccc1
cell number change: 29.4%
AC50 [2]: 1.84 µM [rising, full curve, poor fit]
AC50 [1]: 5.8 µM [rising, full curve]

CCOC(=O)c1ccccc1NC(=O)COC(=O)CSc1ccccc1
cell number change: -13.4%
AC50 [1]: 0.092 µM [falling, full curve, poor fit]

O=C(NCCOc1cccc(Cl)c1Cl)c1cc(-n2cnnc2)ccc1Cl
cell number change: -15%
AC50 [1]: 0.116 µM [falling, full curve, poor fit]

COc1ccc2c(c1)CCc1c(C(=O)Nc3c(C)nn(Cc4ccccc4)c3C)noc1-2
AC50 [1]: 2.91 µM [rising, partial curve]

Cc1ccc2[nH]c(=O)c(C(c3nnnn3CCc3ccccc3)N3CCOCC3)cc2c1 (centres undefined)
AC50 [2]: 0.103 µM [rising, full curve, poor fit]

CCCCc1ccc(NC(=S)N2CCC(O)CC2)cc1
cell number change: -7.06%
AC50 [2]: 0.13 µM [falling, single point]
AC50 [1]: 5.17 µM [falling, single point]

CSc1cccc(NC(=O)CCS(=O)(=O)c2cccc3nonc23)c1
cell number change: 15.8%

O=C(CCCCCNc1nc(=S)[nH]c2ccccc12)NCCc1c[nH]c2ccccc12
cell number change: -26.9%
AC50 [1]: 29.1 µM [falling, single point]

COc1ccc(NC(=O)CSc2nc(N)c(C(=O)Nc3ccc(N(C)C)cc3)s2)cc1
cell number change: 22.1%
AC50 [1]: 0.366 µM [rising, single point]

CCCCCC(=O)NC(CC(=O)OC)c1ccc2c(c1)OCO2 (centres undefined)
cell number change: 50.2%
AC50 [2]: 20.6 µM [rising, single point]

O=C(c1ccc(-c2ccccc2Cl)o1)N1CCC1
AC50 [2]: 7.31 µM [falling, single point]
AC50 [1]: 6.51 µM [rising, single point]

CSC1=NCCN1C(=O)Cc1ccc(-c2ccccc2)cc1
cell number change: 44.7%
AC50 [2]: 1.03 µM [rising, full curve]
AC50 [1]: 5.8 µM [rising, single point]

COc1ccc(OC)c(C(=O)c2ccccn2)c1
cell number change: 27.3%
AC50 [1]: 3.26 µM [rising, full curve]

Cc1ccc([N+](=O)[O-])cc1N
cell number change: 31.7%
AC50 [2]: 1.64 µM [rising, full curve, poor fit]
AC50 [1]: 16.4 µM [rising, single point]

CC(C)NC(=O)CC1OC(=O)c2ccccc21 (centres undefined)
cell number change: -98.3%
AC50 [2]: 23.1 µM [falling, partial curve, poor fit]
AC50 [1]: 23.1 µM [falling, partial curve]

Cc1ccc(-n2nc(C)c(C(=O)O)c2-n2cccc2)cc1
cell number change: -23.8%
AC50 [1]: 0.13 µM [falling, full curve, poor fit]

CC(C)(C)c1cc(-c2nc(N)nc(N)n2)cc(C(C)(C)C)c1
cell number change: -66.4%
AC50 [2]: 29.1 µM [falling, single point]

CCCCCCNc1c(C(=O)OCC)c(=O)[nH]c2ccccc12
cell number change: -37.7%
AC50 [1]: 29.1 µM [falling, single point]

C(=N\N1CCN(Cc2ccccc2)CC1)/c1ccc(-c2ccccc2)cc1
cell number change: 9.81%

CCCCOc1ncnc2c1[nH]c1ccc(C)cc12
cell number change: -24.5%
AC50 [1]: 5.8 µM [falling, full curve]

Cc1ccc(NS(=O)(=O)c2ccc(C(=O)N3CC(C)OC(C)C3)cc2)cc1 (centres undefined)
AC50 [1]: 1.46 µM [falling, partial curve]

FC(F)(F)c1ccc(/C=N/N2CCN(Cc3ccccc3)CC2)cc1
cell number change: -18.2%

NC(=S)Nc1cccc(-c2n[nH]c(=S)o2)c1
cell number change: 5.96%
AC50 [1]: 29.1 µM [rising, single point]

CCOC(=O)CNC(=S)N(Cc1ccc(C)cc1)Cc1ccc(C)o1
cell number change: -52.2%
AC50 [2]: 14.6 µM [falling, partial curve]
AC50 [1]: 3.66 µM [falling, partial curve]

O=C(Cn1cc2c(n1)CCCCC2)NCCCN1CCOCC1
cell number change: -58.8%
AC50 [2]: 29.1 µM [falling, partial curve, poor fit]
AC50 [1]: 14.6 µM [falling, partial curve]

Cc1nc(/N=C(\N)NC(=O)NC2CCCCC2)nc2ccccc12
cell number change: -36.8%
AC50 [2]: 14.6 µM [falling, single point]
AC50 [1]: 16.4 µM [falling, partial curve, poor fit]

COC(=O)C1=C(C)NC(c2c(O)ccc3ccccc23)C(C(=O)OC)=C1C (centres undefined)
cell number change: 9.17%
AC50 [1]: 9.2 µM [rising, partial curve]

COc1ccc(C)cc1N(CC(=O)N/N=C/c1ccccc1C(=O)O)S(=O)(=O)c1ccccc1
AC50 [1]: 0.13 µM [rising, full curve, poor fit]

CC1=CC(C)(C)N2C(=O)C3(NCCc4c3[nH]c3ccccc43)c3cc(C)cc1c32 (centres undefined)
cell number change: -5.38%
AC50 [1]: 2.31 µM [falling, partial curve, poor fit]

Cc1cc(-c2ccc([N+](=O)[O-])cc2)nc2ccccc12
cell number change: 22.8%
AC50 [1]: 20.6 µM [rising, partial curve]

c1ccc(-c2nc(-c3ccncc3)no2)cc1
cell number change: -7.78%
AC50 [1]: 11.6 µM [falling, partial curve]

Cc1nnc(SCc2nc3ccccc3nc2C)s1
cell number change: 33.5%
AC50 [2]: 0.82 µM [rising, full curve, poor fit]

N#CCC(=O)Nc1ccc(C(=O)NCCc2c[nH]c3ccccc23)cc1
cell number change: -6.41%

O=C(CSc1ncnc2c1oc1ccccc12)N1CCCc2ccccc21
AC50 [1]: 3.66 µM [rising, partial curve]

COCCN(C(=O)COC(=O)c1c(-c2ccccc2)noc1C)c1c(N)n(Cc2ccccc2)c(=O)[nH]c1=O
cell number change: -6.52%

NS(=O)(=O)c1ccc(N=Cc2ccc(Br)s2)cc1
cell number change: -6.27%
AC50 [1]: 6.51 µM [falling, partial curve]

CCOC(=O)c1sc2nc(CC(=O)OC)nc(NCCN(CC)CC)c2c1C
cell number change: 19%

O=C(Nc1ccccc1)Nc1ccc2nnsc2c1
cell number change: -68.8%
AC50 [2]: 2.31 µM [falling, partial curve]
AC50 [1]: 2.91 µM [falling, partial curve]

O=C(COC(=O)Cc1c[nH]c2ccccc12)NC1CCCCC1
cell number change: 54.5%
AC50 [2]: 29.1 µM [rising, single point]

C=CCN(c1ccccc1)S(=O)(=O)c1cccc(C(=O)NCC(c2cccs2)N2CCOCC2)c1 (centres undefined)
cell number change: -13.8%

CCc1noc(C)c1C(=O)NNC(=O)COc1ccccc1C
cell number change: 36.1%
AC50 [2]: 3.26 µM [rising, full curve]
AC50 [1]: 2.31 µM [rising, full curve]

COc1ccc(C2(CNC(=O)/C=C/c3ccco3)CCCC2)cc1OC
cell number change: -16.4%
AC50 [1]: 25.9 µM [falling, single point]

COc1cccc(CNC(=O)c2cccc(S(=O)(=O)N3CCN(C)CC3)c2)c1
cell number change: 14.1%
AC50 [1]: 5.62 µM [rising, single point]

COc1c2occc2c(OC)c2c(=O)cc(C(F)(F)F)oc12
AC50 [2]: 1.3 µM [rising, full curve]
AC50 [1]: 0.58 µM [rising, single point]

Cc1cccc(-n2cnc(C(=O)NNC(=S)Nc3ccccc3)c2)n1
cell number change: -2.73%
AC50 [2]: 0.731 µM [rising, single point]

Cc1nc(CSc2nnc(C)s2)cs1
cell number change: 0.987%
AC50 [1]: 1.46 µM [falling, full curve, poor fit]

Source: PubChem BioAssay AID2685 (National Center for Advancing Translational Sciences (NCATS), 2010)
